Test results as given in the supplement of paper PMC6143611.
Counter-ions that a name gives are not always drawn. ± gives the uncertainty stated by the source. The list shows a part of the results. Plates or batches differ in their baseline, so values are only roughly comparable.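 Larvae carried a heat-shock-induced fluorescent stripe in rod outer segments, set at 6 dpf; the shedding distance runs from this stripe to the outer segment tip, measured in confocal stacks, about three fish per compound. The controls got 0.2% DMSO vehicle, and the paper flagged compounds with at least a 20% change against the same-week control and p < 0.001 (Dunnett test on mixed-effects models).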

Legend:
[1] = system: Danio rerio larva rod photoreceptor outer segment; assay: rod outer segment growth distance Dg, difference from same-week DMSO control mean; higher = more outer segment growth; details: 20 µM; treatment time: 4 days (6-10 dpf)
[2] = system: Danio rerio larva rod photoreceptor outer segment; assay: rod outer segment shedding distance Ds, difference from same-week DMSO control mean; higher = less outer segment shedding; details: 20 µM; treatment time: 4 days (6-10 dpf)

| Compound | rod outer segment growth distance Dg [1] [um] | rod outer segment shedding distance Ds [2] [um] |
| --- | --- | --- |
| CCCCCCCN(CC)CCCC(O)c1ccc(NS(C)(=O)=O)cc1 (centres undefined) [Ibutilide Fumarate] | 0.31 ± 0.23 | 0.32 ± 0.24 |
| O=C1CC(=O)c2c(Cl)c(Cl)c(Cl)c(Cl)c21 | -0.56 ± 0.23 | -0.9 ± 0.34 |
| OC[C@H]1O[C@@H](Oc2ccc(O)cc2)[C@H](O)[C@@H](O)[C@@H]1O [Arbutin] | 0.35 ± 0.27 | -0.37 ± 0.42 |
| COc1ccccc1N1CCN(CCN2C(=O)CC3(CCCC3)CC2=O)CC1 | -1.58 ± 0.16 | 0 ± 0.13 |
| O=C(CCc1ccc(O)cc1)c1c(O)cc(O)cc1O[C@@H]1O[C@H](CO)[C@@H](O)[C@H](O)[C@H]1O [Phlorizin] | -1.86 ± 1.9 | -4.37 ± 2 |
| COc1nc(C)nc(Cl)c1NC1=NCCN1 [Moxonidine] | 0.32 ± 0.24 | -0.31 ± 0.24 |
| CNC(=O)[C@H](Cc1ccccc1)NC(=O)[C@H](CC(C)C)[C@H](CSc1cccs1)C(=O)NO [Batimastat (BB-94)] | -0.99 ± 0.2 | -1.11 ± 0.28 |
| COc1ccc([C@@H]2Sc3ccccc3N(CCN(C)C)C(=O)[C@@H]2OC(C)=O)cc1 [Diltiazem HCl] | -0.76 ± 0.18 | -0.89 ± 0.29 |
| C#Cc1cccc(Nc2ncnc3cc(OCCOC)c(OCCOC)cc23)c1 [Erlotinib HCl (OSI-744)] | 3.05 ± 0.2 | -1.08 ± 0.23 |
| O=c1ccc2ccc(O)c(O)c2o1 [Daphnetin] | -1.2 ± 0.25 | -0.52 ± 0.18 |
| COc1cc(C(=O)NS(=O)(=O)c2ccccc2C)ccc1Cc1cn(C)c2ccc(NC(=O)OC3CCCC3)cc12 [Zafirlukast] | 0.37 ± 0.28 | -0.75 ± 0.14 |
| CC(C(=O)O)c1ccc(-c2ccccc2)c(F)c1 (centres undefined) [Flurbiprofen] | 1.02 ± 0.18 | 0.41 ± 0.17 |

Single records, from the list above:
O=C1CC(=O)c2c(Cl)c(Cl)c(Cl)c(Cl)c21 as listed: rod outer segment growth distance Dg [1] [um]: -0.56 ± 0.23; rod outer segment shedding distance Ds [2] [um]: -0.9 ± 0.34
C#Cc1cccc(Nc2ncnc3cc(OCCOC)c(OCCOC)cc23)c1 [Erlotinib HCl (OSI-744)] as listed: rod outer segment growth distance Dg [1] [um]: 3.05 ± 0.2; rod outer segment shedding distance Ds [2] [um]: -1.08 ± 0.23
